{"source": "PubChem BioAssay AID504793 (Drosophila RNAi Screening Center, 2011)", "screen": "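Knock-downs allowing continued mitosis even though DNA is damaged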 (primary screen)", "cell system": "Drosophila S2R+ cells", "knock-down reagent": "long dsRNA against Drosophila genes, about 0.25 µg dsRNA per well", "duration": "4 days of dsRNA, then 4 hours of drug before read-out", "treatment": "doxorubicin 0.5 µM for 4 hours to cause double-strand breaks, in cells also given a low, harmless dose of dsRNA against nbs to sensitise the assay", "detection": "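Per-well count of mitotic cells stained for phospho-histone H3 after doxorubicin exposure, used as mitotic index; counts are raw and not normalised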", "scale": "mitotic cells: higher = more cells in mitosis, weaker G2 arrest", "rule for the call": "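a call needs confirmation in secondary tests, with other dsRNAs and a check of mitotic timing without damage, not just a high primary count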", "calls": "active = confirmed in follow-up tests; inactive = not confirmed", "note": "The deposit covers about 23,000 reagents; shown is a random part of those that have a named target and a result. Of all reagents, 62 (0.27%) are marked active. 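Calls come from follow-up tests whose scores are not deposited, so confirmed genes may have low counts here; counts are not normalised per plate.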 Raw values are not corrected between plates. Reagents against one gene are numbered here."}
{"gene": "CG32708", "reagent no.": 1, "mitotic cells, replicate 1": 8, "call": "inactive"}
{"gene": "CG32708", "reagent no.": 2, "mitotic cells, replicate 1": 8, "call": "inactive"}
{"gene": "CG7724", "reagent no.": 1, "mitotic cells, replicate 1": 7, "call": "inactive"}
{"gene": "tzn (tenzing norgay)", "reagent no.": 1, "mitotic cells, replicate 1": 4, "call": "inactive"}
{"gene": "CG10804", "reagent no.": 1, "mitotic cells, replicate 1": 5, "call": "inactive"}
{"gene": "Tudor-SN (Tudor staphylococcal nuclease)", "reagent no.": 1, "mitotic cells, replicate 1": 11, "call": "inactive"}
{"gene": "Bfc (Booster for Crq)", "reagent no.": 1, "mitotic cells, replicate 1": 9, "call": "inactive"}

Next part (2 carried over from the part before).
{"gene": "Tudor-SN (Tudor staphylococcal nuclease)", "reagent no.": 1, "mitotic cells, replicate 1": 11, "call": "inactive"}
{"gene": "Bfc (Booster for Crq)", "reagent no.": 1, "mitotic cells, replicate 1": 9, "call": "inactive"}
{"gene": "Muc12Ea (Mucin 12Ea)", "reagent no.": 1, "mitotic cells, replicate 1": 6, "call": "inactive"}
{"gene": "Muc12Ea (Mucin 12Ea)", "reagent no.": 2, "mitotic cells, replicate 1": 4, "call": "inactive"}
{"gene": "CDase (Ceramidase)", "reagent no.": 1, "mitotic cells, replicate 1": 5, "call": "inactive"}
{"gene": "CG17841", "reagent no.": 1, "mitotic cells, replicate 1": 6, "call": "inactive"}
{"gene": "CG17841", "reagent no.": 2, "mitotic cells, replicate 1": 5, "call": "inactive"}
{"gene": "CG10307", "reagent no.": 1, "mitotic cells, replicate 1": 7, "call": "inactive"}
{"gene": "CG10307", "reagent no.": 2, "mitotic cells, replicate 1": 8, "call": "inactive"}
